Data source: PubChem BioAssay AID743121 (NCATS, 2013)

Screen: 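Genes whose silencing strengthens cell killing by camptothecin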 (primary screen)
Cells: MDA-MB-231 cells, a human breast cancer line
Knock-down reagent: single siRNA against human genes, 20 nM siRNA (0.8 pmol per well)
Duration: 120 h (drug added 48 h after transfection, read 72 h later)
Treatment: camptothecin 20 nM (about EC30) for 72 h; vehicle 0.1% DMSO in parallel plates
Measured: 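Cell viability by ATP luminescence (CellTiter-Glo) as % of non-targeting siRNA wells, and the log2 ratio of viability without drug over viability with camptothecin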
Scale: log2 vehicle/camptothecin viability: higher = stronger sensitisation to camptothecin; viability with camptothecin and viability without drug: higher = more viable cells
Call rule: 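Active genes have an RSA gene-level p-value below 0.001, computed from the ratios of their separate siRNAs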
The deposit covers about 26,000 reagents; shown is a part drawn at random. 167 of them (0.63%) were called active. 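Calls are per gene from RSA p-values that are not deposited; an individual active-marked siRNA can sensitise only weakly.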 The numbers tell different reagents against one gene apart. Reagent sequences are not shown.

Target gene | reagent no. | log2 vehicle/camptothecin viability | viability with camptothecin (% of control) | viability without drug (% of control) | Outcome
PITPNM1 (phosphatidylinositol transfer protein membrane associated 1) | 1 | -0.661 | 74.7 | 47.2 | inactive
PITPNM1 (phosphatidylinositol transfer protein membrane associated 1) | 2 | -0.0637 | 85.4 | 81.7 | inactive
PITPNM1 (phosphatidylinositol transfer protein membrane associated 1) | 3 | -0.274 | 64.1 | 53 | inactive
PITPNM1 (phosphatidylinositol transfer protein membrane associated 1) | 4 | -0.294 | 108 | 88 | inactive
PCNA (proliferating cell nuclear antigen) | 1 | -0.31 | 68 | 54.8 | inactive
PCNA (proliferating cell nuclear antigen) | 2 | -0.854 | 64.7 | 35.8 | inactive
PCNA (proliferating cell nuclear antigen) | 3 | -0.785 | 69.4 | 40.3 | inactive
PCNA (proliferating cell nuclear antigen) | 4 | -0.685 | 99.3 | 61.7 | inactive
KDR (kinase insert domain receptor) | 1 | -0.149 | 103 | 93.2 | inactive
KDR (kinase insert domain receptor) | 2 | 0.379 | 21.4 | 27.8 | inactive
KDR (kinase insert domain receptor) | 3 | 0.0716 | 111 | 117 | inactive
KDR (kinase insert domain receptor) | 4 | -0.348 | 61.4 | 48.3 | inactive
COMMD5 (COMM domain containing 5) | 1 | 0.0322 | 76 | 77.7 | inactive
COMMD5 (COMM domain containing 5) | 2 | -0.167 | 69.9 | 62.3 | inactive
COMMD5 (COMM domain containing 5) | 3 | -0.0633 | 112 | 107 | inactive
COMMD5 (COMM domain containing 5) | 4 | -0.427 | 148 | 110 | inactive
KLK2 (kallikrein related peptidase 2) | 1 | -0.32 | 55.5 | 44.5 | inactive
KLK2 (kallikrein related peptidase 2) | 2 | -0.329 | 30.2 | 24 | inactive
KLK2 (kallikrein related peptidase 2) | 3 | 0.118 | 65.4 | 70.9 | inactive
KLK2 (kallikrein related peptidase 2) | 4 | -0.136 | 41.2 | 37.5 | inactive
NPAS4 (neuronal PAS domain protein 4) | 1 | -0.586 | 45.6 | 30.4 | inactive
NPAS4 (neuronal PAS domain protein 4) | 2 | -0.573 | 89.2 | 59.9 | inactive
NPAS4 (neuronal PAS domain protein 4) | 3 | -0.439 | 93.8 | 69.2 | inactive
NPAS4 (neuronal PAS domain protein 4) | 4 | 1.58 | 8.81 | 26.3 | inactive
ADGRV1 (adhesion G protein-coupled receptor V1) | 1 | -0.192 | 80.3 | 70.3 | inactive
ADGRV1 (adhesion G protein-coupled receptor V1) | 2 | 0.0792 | 86.2 | 91.1 | inactive
ADGRV1 (adhesion G protein-coupled receptor V1) | 3 | -0.0258 | 88.1 | 86.5 | inactive
ADGRV1 (adhesion G protein-coupled receptor V1) | 4 | -0.16 | 106 | 94.7 | inactive
METTL1 (methyltransferase 1, tRNA methylguanosine) | 1 | 0.213 | 37 | 42.9 | inactive
METTL1 (methyltransferase 1, tRNA methylguanosine) | 2 | 0.398 | 50.7 | 66.9 | inactive
METTL1 (methyltransferase 1, tRNA methylguanosine) | 3 | -0.402 | 77.7 | 58.8 | inactive
METTL1 (methyltransferase 1, tRNA methylguanosine) | 4 | 0.0509 | 57.7 | 59.8 | inactive
INSL4 (insulin like 4) | 1 | -0.132 | 64.9 | 59.2 | inactive
INSL4 (insulin like 4) | 2 | 0.0433 | 88 | 90.7 | inactive
INSL4 (insulin like 4) | 3 | 0.0733 | 71 | 74.6 | inactive
SSTR5 (somatostatin receptor 5) | 1 | -0.121 | 50.5 | 46.5 | inactive
SSTR5 (somatostatin receptor 5) | 2 | 0.237 | 70.6 | 83.2 | inactive
SSTR5 (somatostatin receptor 5) | 3 | -0.194 | 52 | 45.4 | inactive
SSTR5 (somatostatin receptor 5) | 4 | -0.668 | 83.5 | 52.5 | inactive
CA1 (carbonic anhydrase 1) | 1 | 0.472 | 49.5 | 68.7 | inactive
CA1 (carbonic anhydrase 1) | 2 | -0.14 | 94 | 85.3 | inactive
CA1 (carbonic anhydrase 1) | 3 | -0.471 | 82.5 | 59.5 | inactive
CKMT1B (creatine kinase, mitochondrial 1B) | 1 | -0.0779 | 95.1 | 90.1 | inactive
CKMT1B (creatine kinase, mitochondrial 1B) | 2 | 0.19 | 57.5 | 65.6 | inactive
CKMT1B (creatine kinase, mitochondrial 1B) | 3 | -0.171 | 99.1 | 88 | inactive
CKMT1B (creatine kinase, mitochondrial 1B) | 4 | -0.504 | 108 | 76.5 | inactive
CCR3 (C-C motif chemokine receptor 3) | 1 | -0.496 | 86.2 | 61.1 | inactive
CCR3 (C-C motif chemokine receptor 3) | 2 | -0.0833 | 78.9 | 74.5 | inactive
CCR3 (C-C motif chemokine receptor 3) | 3 | 0.227 | 101 | 118 | inactive
CCR3 (C-C motif chemokine receptor 3) | 4 | -0.382 | 86.1 | 66.1 | inactive
PREP (prolyl endopeptidase) | 1 | 0.757 | 27.9 | 47.1 | inactive
PREP (prolyl endopeptidase) | 2 | -0.0836 | 109 | 103 | inactive
PREP (prolyl endopeptidase) | 3 | -0.314 | 91.8 | 73.8 | inactive
PREP (prolyl endopeptidase) | 4 | 0.146 | 48.6 | 53.8 | inactive
ENO1 (enolase 1) | 1 | -0.106 | 94.8 | 88.1 | inactive
ENO1 (enolase 1) | 2 | -0.0901 | 74 | 69.5 | inactive
ENO1 (enolase 1) | 3 | -0.182 | 73.4 | 64.7 | inactive
CD3E (CD3 epsilon subunit of T-cell receptor complex) | 1 | -0.23 | 82.7 | 70.5 | inactive
CD3E (CD3 epsilon subunit of T-cell receptor complex) | 2 | -0.343 | 99 | 78.1 | inactive
CD3E (CD3 epsilon subunit of T-cell receptor complex) | 3 | 0.414 | 40 | 53.3 | inactive
ARID1A (AT-rich interaction domain 1A) | 1 | -0.385 | 21.2 | 16.3 | inactive
ARID1A (AT-rich interaction domain 1A) | 2 | 0.565 | 41.6 | 61.5 | inactive
ARID1A (AT-rich interaction domain 1A) | 3 | -0.145 | 119 | 108 | inactive
ARID1A (AT-rich interaction domain 1A) | 4 | -0.394 | 91.4 | 69.6 | inactive
TFDP2 (transcription factor Dp-2) | 1 | -0.0507 | 74.8 | 72.2 | inactive
TFDP2 (transcription factor Dp-2) | 2 | -0.278 | 93.7 | 77.2 | inactive
TFDP2 (transcription factor Dp-2) | 3 | -0.678 | 25.1 | 15.7 | inactive
TFDP2 (transcription factor Dp-2) | 4 | -0.441 | 58.3 | 42.9 | inactive
